± gives the standard deviation of the averaged measurements. Differences between knockout arms are mostly noise.
Tested on: BT-20
Test: relative cell number vs DMSO control (72 h) (% of DMSO); higher = less growth inhibition (more cells)
Description: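 QMAP-Seq: a pool of 5 breast cancer cell lines (ZR-75-1, SKBR3, HCC-38, MDA-MB-231, BT-20), each carrying 12 doxycycline-inducible Cas9 sgRNA perturbations (11 knockouts plus non-targeting sgNT), was treated with compounds for 72 h at four 10-fold doses (10 nM-10 uM or 1 nM-1 uM range). Barcodes were amplified and sequenced, and cell number was interpolated from 293T spike-in standard curves. The result is expressed as % of the median of DMSO wells. Two biological replicates.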

C[C@@H](Oc1cc(-c2cnn(C3CCNCC3)c2)cnc1N)c1c(Cl)ccc(F)c1Cl [Crizotinib]
relative cell number (sgRNA knockout: sgATF3, 10 nM): 91.7 ± 19
relative cell number (sgRNA knockout: sgATF3, 100 nM): 89.2 ± 5.9
relative cell number (sgRNA knockout: sgATF3, 1000 nM): 80.5 ± 20
relative cell number (sgRNA knockout: sgATF3, 10000 nM): 35.9 ± 6.8
relative cell number (sgRNA knockout: sgATF4, 10 nM): 112 ± 11
relative cell number (sgRNA knockout: sgATF4, 100 nM): 93.2 ± 1.6
relative cell number (sgRNA knockout: sgATF4, 1000 nM): 75.4 ± 11
relative cell number (sgRNA knockout: sgATF4, 10000 nM): 37.7 ± 2.6
relative cell number (sgRNA knockout: sgATF6, 10 nM): 92.5 ± 14
relative cell number (sgRNA knockout: sgATF6, 100 nM): 98.7 ± 9.2
relative cell number (sgRNA knockout: sgATF6, 1000 nM): 87.8 ± 28
relative cell number (sgRNA knockout: sgATF6, 10000 nM): 43.9 ± 8.2
relative cell number (sgRNA knockout: sgATG7, 10 nM): 102 ± 30
relative cell number (sgRNA knockout: sgATG7, 100 nM): 93.272 ± 0.045
relative cell number (sgRNA knockout: sgATG7, 1000 nM): 92.1 ± 0.98
relative cell number (sgRNA knockout: sgATG7, 10000 nM): 50.7 ± 7.7
relative cell number (sgRNA knockout: sgERN1, 10 nM): 92.5 ± 28
relative cell number (sgRNA knockout: sgERN1, 100 nM): 87.4 ± 9.5
relative cell number (sgRNA knockout: sgERN1, 1000 nM): 94.3 ± 14
relative cell number (sgRNA knockout: sgERN1, 10000 nM): 43.3 ± 4.6
relative cell number (sgRNA knockout: sgHSF1, 10 nM): 101 ± 9.9
relative cell number (sgRNA knockout: sgHSF1, 100 nM): 88.9 ± 21
relative cell number (sgRNA knockout: sgHSF1, 1000 nM): 81.2 ± 18
relative cell number (sgRNA knockout: sgHSF1, 10000 nM): 34.3 ± 8.8
relative cell number (sgRNA knockout: sgHSF2, 10 nM): 69.5 ± 4
relative cell number (sgRNA knockout: sgHSF2, 100 nM): 109 ± 16
relative cell number (sgRNA knockout: sgHSF2, 1000 nM): 72.3 ± 3.8
relative cell number (sgRNA knockout: sgHSF2, 10000 nM): 42.9 ± 4.2
relative cell number (sgRNA knockout: sgKEAP1, 10 nM): 79.3 ± 4.8
relative cell number (sgRNA knockout: sgKEAP1, 100 nM): 83.5 ± 12
relative cell number (sgRNA knockout: sgKEAP1, 1000 nM): 81.43 ± 0.1
relative cell number (sgRNA knockout: sgKEAP1, 10000 nM): 39.2 ± 7.6
relative cell number (sgRNA knockout: sgNFE2L2, 10 nM): 91.5 ± 4
relative cell number (sgRNA knockout: sgNFE2L2, 100 nM): 95.3 ± 7
relative cell number (sgRNA knockout: sgNFE2L2, 1000 nM): 86.9 ± 5.7
relative cell number (sgRNA knockout: sgNFE2L2, 10000 nM): 32 ± 5.9
relative cell number (sgRNA knockout: sgSLC35F2, 10 nM): 100 ± 13
relative cell number (sgRNA knockout: sgSLC35F2, 100 nM): 114 ± 5.1
relative cell number (sgRNA knockout: sgSLC35F2, 1000 nM): 84.6 ± 15
relative cell number (sgRNA knockout: sgSLC35F2, 10000 nM): 49.2 ± 1.5
relative cell number (sgRNA knockout: sgXBP1, 10 nM): 97.4 ± 4.5
relative cell number (sgRNA knockout: sgXBP1, 100 nM): 98.8 ± 6.2
relative cell number (sgRNA knockout: sgXBP1, 1000 nM): 78.9 ± 11
relative cell number (sgRNA knockout: sgXBP1, 10000 nM): 44.1 ± 2.4

Reference: the supplement of paper PMC7661543
